Test results: the supplement of paper PMC10849652
This is one part of the list.

By UniProt entry, the sequences of proteins in these tests, tags left out. Where a name states a change or a piece, a line headed by the entry shows the natural chain unless it says otherwise.
UniProt P22304: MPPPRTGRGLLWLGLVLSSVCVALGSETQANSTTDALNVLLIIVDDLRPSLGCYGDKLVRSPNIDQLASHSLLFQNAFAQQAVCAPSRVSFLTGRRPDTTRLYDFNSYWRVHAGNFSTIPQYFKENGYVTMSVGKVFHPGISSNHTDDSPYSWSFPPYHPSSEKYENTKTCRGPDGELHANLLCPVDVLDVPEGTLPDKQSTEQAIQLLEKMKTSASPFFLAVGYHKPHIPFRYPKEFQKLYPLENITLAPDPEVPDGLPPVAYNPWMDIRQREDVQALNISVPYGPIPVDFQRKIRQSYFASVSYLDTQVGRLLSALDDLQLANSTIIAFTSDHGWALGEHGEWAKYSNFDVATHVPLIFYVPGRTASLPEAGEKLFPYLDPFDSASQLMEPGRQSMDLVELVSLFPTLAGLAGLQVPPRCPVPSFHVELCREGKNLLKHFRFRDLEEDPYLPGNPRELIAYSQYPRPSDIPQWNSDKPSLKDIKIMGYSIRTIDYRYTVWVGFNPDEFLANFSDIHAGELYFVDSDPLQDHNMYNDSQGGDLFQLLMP
UniProt Q6UWB1, whole entry, looked up: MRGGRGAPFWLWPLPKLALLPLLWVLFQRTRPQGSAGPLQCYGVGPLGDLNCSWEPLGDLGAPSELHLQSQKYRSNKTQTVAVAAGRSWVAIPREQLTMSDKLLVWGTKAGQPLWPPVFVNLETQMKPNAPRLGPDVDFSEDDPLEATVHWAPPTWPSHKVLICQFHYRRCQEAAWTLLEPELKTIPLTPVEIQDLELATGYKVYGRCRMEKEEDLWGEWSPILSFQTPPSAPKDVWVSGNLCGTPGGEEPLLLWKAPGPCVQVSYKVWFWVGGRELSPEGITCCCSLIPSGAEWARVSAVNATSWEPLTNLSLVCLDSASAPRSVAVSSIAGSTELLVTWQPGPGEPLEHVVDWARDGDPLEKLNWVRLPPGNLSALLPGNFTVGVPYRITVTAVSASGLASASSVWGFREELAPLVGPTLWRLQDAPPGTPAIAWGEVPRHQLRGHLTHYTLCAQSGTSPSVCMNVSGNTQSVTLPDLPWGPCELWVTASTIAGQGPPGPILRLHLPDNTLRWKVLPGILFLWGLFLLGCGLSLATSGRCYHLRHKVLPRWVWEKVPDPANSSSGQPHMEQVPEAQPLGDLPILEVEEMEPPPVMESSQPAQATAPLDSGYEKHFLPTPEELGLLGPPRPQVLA
UniProt Q13099: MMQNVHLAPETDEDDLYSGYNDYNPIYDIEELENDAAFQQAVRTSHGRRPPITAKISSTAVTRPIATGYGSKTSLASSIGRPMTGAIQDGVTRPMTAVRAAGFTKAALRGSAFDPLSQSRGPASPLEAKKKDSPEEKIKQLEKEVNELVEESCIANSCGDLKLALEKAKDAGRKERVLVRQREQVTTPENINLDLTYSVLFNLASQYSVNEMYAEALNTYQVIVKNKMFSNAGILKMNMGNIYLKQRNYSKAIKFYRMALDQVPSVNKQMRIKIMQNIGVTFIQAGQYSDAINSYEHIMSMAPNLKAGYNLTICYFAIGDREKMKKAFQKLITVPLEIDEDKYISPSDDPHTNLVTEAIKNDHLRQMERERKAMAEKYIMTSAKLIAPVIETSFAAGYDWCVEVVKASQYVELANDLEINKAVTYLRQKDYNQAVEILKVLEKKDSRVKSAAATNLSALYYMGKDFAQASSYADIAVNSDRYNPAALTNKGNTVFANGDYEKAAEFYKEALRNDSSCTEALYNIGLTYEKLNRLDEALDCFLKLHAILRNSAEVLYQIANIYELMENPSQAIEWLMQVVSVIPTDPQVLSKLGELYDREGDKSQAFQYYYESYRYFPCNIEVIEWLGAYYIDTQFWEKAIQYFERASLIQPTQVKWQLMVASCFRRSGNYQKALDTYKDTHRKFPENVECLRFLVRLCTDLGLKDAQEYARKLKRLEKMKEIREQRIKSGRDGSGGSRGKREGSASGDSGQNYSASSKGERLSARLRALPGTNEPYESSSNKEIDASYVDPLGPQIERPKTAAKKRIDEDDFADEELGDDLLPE
UniProt O14879: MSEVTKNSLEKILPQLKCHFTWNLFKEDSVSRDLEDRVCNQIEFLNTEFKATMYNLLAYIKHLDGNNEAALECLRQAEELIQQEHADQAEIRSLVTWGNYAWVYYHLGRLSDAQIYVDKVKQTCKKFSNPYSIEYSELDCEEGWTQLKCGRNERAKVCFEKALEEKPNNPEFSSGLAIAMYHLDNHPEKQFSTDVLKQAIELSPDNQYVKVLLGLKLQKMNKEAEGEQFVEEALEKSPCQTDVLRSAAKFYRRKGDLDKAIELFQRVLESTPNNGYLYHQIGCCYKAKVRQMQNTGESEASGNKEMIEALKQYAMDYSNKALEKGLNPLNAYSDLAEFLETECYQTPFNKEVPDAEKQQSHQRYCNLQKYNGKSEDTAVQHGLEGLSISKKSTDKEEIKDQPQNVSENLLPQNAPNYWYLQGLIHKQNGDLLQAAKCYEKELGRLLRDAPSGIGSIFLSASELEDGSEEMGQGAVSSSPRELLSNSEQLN
UniProt Q9NWB7: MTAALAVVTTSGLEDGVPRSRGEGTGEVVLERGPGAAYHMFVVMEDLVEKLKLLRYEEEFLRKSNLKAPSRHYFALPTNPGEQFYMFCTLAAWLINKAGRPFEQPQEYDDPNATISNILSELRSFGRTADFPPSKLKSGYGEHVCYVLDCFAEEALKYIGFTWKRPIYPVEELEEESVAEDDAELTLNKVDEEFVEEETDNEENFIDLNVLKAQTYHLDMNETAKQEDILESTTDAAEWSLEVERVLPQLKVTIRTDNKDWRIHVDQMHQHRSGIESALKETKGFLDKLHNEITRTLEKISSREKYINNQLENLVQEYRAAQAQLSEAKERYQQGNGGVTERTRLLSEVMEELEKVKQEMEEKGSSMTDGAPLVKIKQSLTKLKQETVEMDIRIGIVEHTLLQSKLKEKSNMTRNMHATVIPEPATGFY
UniProt P17181: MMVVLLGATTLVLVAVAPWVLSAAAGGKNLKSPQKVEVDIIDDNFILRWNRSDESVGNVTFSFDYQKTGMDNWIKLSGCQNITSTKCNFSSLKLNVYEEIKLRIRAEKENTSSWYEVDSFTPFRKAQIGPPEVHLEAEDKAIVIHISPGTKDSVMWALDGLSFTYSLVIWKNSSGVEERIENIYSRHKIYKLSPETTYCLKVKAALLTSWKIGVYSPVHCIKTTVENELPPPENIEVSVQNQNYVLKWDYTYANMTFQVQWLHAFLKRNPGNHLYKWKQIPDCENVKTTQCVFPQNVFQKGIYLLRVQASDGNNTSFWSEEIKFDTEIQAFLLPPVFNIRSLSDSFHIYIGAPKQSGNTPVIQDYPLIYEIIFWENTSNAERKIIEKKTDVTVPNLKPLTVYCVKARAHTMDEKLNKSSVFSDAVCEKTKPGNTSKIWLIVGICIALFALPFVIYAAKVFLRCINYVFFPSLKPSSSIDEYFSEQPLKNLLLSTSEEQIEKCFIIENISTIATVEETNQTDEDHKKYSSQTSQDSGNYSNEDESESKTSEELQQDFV
UniProt Q9H160: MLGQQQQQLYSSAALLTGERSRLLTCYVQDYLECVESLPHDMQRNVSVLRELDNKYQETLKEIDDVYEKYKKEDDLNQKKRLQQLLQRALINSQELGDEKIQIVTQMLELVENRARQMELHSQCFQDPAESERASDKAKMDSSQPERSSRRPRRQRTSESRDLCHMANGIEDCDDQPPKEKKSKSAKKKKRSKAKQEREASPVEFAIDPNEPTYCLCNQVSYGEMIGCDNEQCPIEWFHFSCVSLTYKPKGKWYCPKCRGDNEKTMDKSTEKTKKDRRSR
UniProt Q9UNL4, whole entry, looked up: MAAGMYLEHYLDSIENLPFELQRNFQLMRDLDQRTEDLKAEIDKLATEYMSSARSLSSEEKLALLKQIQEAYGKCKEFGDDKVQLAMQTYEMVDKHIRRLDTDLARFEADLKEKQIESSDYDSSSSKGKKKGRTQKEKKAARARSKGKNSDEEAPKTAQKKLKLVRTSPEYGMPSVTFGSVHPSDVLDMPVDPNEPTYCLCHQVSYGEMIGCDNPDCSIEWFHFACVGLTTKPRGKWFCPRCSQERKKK
UniProt Q8WYH8, whole entry, looked up: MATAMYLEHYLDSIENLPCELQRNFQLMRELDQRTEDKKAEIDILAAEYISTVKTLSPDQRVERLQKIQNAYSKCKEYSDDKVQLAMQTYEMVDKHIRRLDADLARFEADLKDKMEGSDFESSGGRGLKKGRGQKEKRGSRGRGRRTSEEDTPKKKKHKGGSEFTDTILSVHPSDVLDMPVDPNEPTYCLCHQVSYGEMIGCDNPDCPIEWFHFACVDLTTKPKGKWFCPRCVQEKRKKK
UniProt Q9Y2F5: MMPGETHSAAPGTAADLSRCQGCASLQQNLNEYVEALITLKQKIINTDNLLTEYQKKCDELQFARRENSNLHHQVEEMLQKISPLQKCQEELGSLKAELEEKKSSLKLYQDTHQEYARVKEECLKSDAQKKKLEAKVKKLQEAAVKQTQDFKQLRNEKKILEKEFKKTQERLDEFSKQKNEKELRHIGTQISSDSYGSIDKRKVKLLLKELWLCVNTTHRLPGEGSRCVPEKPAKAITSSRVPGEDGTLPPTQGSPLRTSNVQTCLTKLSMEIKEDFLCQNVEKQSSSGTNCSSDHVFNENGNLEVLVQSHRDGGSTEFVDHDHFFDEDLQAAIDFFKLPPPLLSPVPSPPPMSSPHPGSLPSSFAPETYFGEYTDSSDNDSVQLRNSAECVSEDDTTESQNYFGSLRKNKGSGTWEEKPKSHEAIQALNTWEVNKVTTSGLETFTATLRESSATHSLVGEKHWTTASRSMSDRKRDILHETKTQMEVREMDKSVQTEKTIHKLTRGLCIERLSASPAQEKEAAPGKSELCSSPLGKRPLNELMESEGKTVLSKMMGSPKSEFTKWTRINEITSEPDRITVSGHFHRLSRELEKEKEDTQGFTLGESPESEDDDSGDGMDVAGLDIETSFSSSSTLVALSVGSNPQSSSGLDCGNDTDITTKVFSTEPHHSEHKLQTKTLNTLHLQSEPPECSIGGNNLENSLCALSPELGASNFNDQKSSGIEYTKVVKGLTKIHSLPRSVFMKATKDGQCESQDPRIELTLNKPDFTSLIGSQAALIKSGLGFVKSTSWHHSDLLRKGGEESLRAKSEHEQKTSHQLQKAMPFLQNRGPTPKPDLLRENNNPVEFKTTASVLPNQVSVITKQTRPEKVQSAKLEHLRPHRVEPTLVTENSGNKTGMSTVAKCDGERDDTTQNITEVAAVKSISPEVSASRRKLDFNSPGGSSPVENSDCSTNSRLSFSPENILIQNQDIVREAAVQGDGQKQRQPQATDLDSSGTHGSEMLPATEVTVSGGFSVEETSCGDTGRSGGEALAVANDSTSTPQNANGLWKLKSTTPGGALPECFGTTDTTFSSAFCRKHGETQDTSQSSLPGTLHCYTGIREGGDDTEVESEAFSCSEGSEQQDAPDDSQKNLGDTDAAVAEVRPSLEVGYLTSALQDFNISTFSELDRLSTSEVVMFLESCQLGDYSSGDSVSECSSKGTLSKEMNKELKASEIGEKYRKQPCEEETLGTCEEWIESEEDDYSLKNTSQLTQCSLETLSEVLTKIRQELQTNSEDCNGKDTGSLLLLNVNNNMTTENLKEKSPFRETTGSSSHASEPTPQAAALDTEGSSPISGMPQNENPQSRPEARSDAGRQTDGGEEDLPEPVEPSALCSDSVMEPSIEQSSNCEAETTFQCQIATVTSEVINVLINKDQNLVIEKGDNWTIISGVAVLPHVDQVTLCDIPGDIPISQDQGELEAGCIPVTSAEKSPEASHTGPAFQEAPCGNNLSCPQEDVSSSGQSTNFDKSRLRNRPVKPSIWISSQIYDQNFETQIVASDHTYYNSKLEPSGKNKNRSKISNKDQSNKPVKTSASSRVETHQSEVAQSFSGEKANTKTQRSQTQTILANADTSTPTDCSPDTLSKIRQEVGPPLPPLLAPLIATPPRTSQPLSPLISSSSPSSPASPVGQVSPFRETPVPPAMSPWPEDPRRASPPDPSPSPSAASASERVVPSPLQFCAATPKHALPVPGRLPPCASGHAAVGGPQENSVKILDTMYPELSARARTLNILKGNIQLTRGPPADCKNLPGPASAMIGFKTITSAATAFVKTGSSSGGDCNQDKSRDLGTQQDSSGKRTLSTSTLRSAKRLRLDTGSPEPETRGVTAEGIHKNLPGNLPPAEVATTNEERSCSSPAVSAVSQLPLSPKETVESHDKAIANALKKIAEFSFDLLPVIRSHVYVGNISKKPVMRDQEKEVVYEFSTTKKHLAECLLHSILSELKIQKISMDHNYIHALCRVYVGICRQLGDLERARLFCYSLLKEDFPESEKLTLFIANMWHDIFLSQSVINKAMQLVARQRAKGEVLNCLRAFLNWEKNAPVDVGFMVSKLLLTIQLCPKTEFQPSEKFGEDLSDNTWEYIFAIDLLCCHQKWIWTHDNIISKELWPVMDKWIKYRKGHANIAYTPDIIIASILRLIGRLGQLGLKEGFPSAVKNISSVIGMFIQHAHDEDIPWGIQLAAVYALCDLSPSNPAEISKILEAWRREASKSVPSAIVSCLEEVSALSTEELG

Tests used:
Test in all cases: log2 fold change, soluble protein after heating vs DMSO (PISA); higher = thermal stabilisation; K562 lysate, 10 uM; active = over 0.2 and 3.5 SD of the protein, either way, in both replicates (recomputed)
vorinostat = compound: O=C(CCCCCCC(=O)Nc1ccccc1)NO [vorinostat]
Procedure, shortened: (§1)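 K562 pellets were dounce-homogenised in PBS pH 7.4 with 1 mM MgCl2, and the crude extract at 1 mg/mL protein was treated with 10 μM compound for 30 min. Aliquots were heated for 3 min across 48°C-58°C, pooled, and brought to 0.5% NP-40 at 4°C; soluble protein was the supernatant after 21,000xg for 90 min. Soluble protein was quantified by TMTpro 16plex LC-MS/MS with channel sums equalised, and reported as log2 fold change in thermal stability against DMSO controls, with values from duplicates.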

silmitasertib = compound: O=C(O)c1ccc2c(c1)nc(Nc1cccc(Cl)c1)c1ccncc12 [silmitasertib]
Procedure, shortened: as §1

entospletinib = compound: c1cn2cc(-c3ccc4cn[nH]c4c3)nc(Nc3ccc(N4CCOCC4)cc3)c2n1 [entospletinib]
Procedure, shortened: as §1

[1] = compound: O=C1NC(=O)C(c2cnc3ccccn23)=C1c1cn2c3c(cc(F)cc13)CN(C(=O)N1CCCCC1)CC2
Procedure, shortened: as §1

Q: What does the source list for IDS (UniProt P22304)?
A: log2 fold change (vorinostat): inactive: 0.237; log2 fold change (silmitasertib): inactive: -0.144; log2 fold change (entospletinib): inactive: -0.088

Q: What does the source list for IGHMBP2 (UniProt P38935)?
A: log2 fold change (vorinostat): inactive: 0.028; log2 fold change (silmitasertib): inactive: 0.088; log2 fold change [1]: inactive: 0.168; log2 fold change (entospletinib): inactive: -0.156

Q: HSPA8 (UniProt E9PN89) was tested. Which log2 fold change (vorinostat) did it give?
A: The log2 fold change was inactive: -0.01.

Q: What about the log2 fold change (silmitasertib) of the same target?
A: The log2 fold change was inactive: 0.016.

Q: What about the log2 fold change [1] of the same target?
A: The log2 fold change was inactive: -0.017.

Q: And the log2 fold change (entospletinib)?
A: The log2 fold change was inactive: -0.024.

Q: For HSPBAP1 (UniProt Q96EW2), which log2 fold change (vorinostat) is on record?
A: The log2 fold change was inactive: -0.07.

Q: What about the log2 fold change (silmitasertib) of the same target?
A: The log2 fold change was inactive: 0.044.

Q: What about the log2 fold change [1] of the same target?
A: Its log2 fold change is inactive: -0.014.

Q: And the log2 fold change (entospletinib)?
A: The log2 fold change was inactive: -0.125.

Q: How did the log2 fold change (vorinostat) turn out when IL27RA (UniProt Q6UWB1) was run?
A: Its log2 fold change is inactive: 0.141.

Q: And the log2 fold change (silmitasertib)?
A: The log2 fold change was inactive: -0.268.

Q: What about the log2 fold change [1] of the same target?
A: The log2 fold change was inactive: -0.074.

Q: What about the log2 fold change (entospletinib) of the same target?
A: The log2 fold change was inactive: -0.016.

Q: How did the log2 fold change [1] turn out when IFT88 (UniProt Q13099) was run?
A: Its log2 fold change is inactive: 0.021.

Q: Which log2 fold change (vorinostat) does the source give for IFIT3 (UniProt O14879) here?
A: The log2 fold change was inactive: -0.08.

Q: What about the log2 fold change (silmitasertib) of the same target?
A: Its log2 fold change is inactive: -0.12.

Q: What about the log2 fold change [1] of the same target?
A: The log2 fold change was inactive: 0.157.

Q: What about the log2 fold change (entospletinib) of the same target?
A: The log2 fold change was inactive: 0.121.

Q: Which log2 fold change (vorinostat) does the source give for IFT57 (UniProt Q9NWB7) here?
A: The log2 fold change was inactive: -0.17.

Q: What about the log2 fold change (silmitasertib) of the same target?
A: The log2 fold change was inactive: 0.094.

Q: What about the log2 fold change [1] of the same target?
A: Its log2 fold change is inactive: 0.024.

Q: And the log2 fold change (entospletinib)?
A: Its log2 fold change is inactive: -0.076.

Q: How did the log2 fold change [1] turn out when IFNAR1 (UniProt P17181) was run?
A: Its log2 fold change is inactive: 0.046.

Q: Which log2 fold change (vorinostat) does the source give for HYOU1, A0A494C039 here?
A: Its log2 fold change is inactive: 0.316.

Q: And the log2 fold change (silmitasertib)?
A: The log2 fold change was inactive: 0.177.

Q: And the log2 fold change (entospletinib)?
A: Its log2 fold change is inactive: 0.088.

Q: With HVCN1 (UniProt Q96D96) as the target, how does the log2 fold change (vorinostat) read?
A: The log2 fold change was inactive: 0.143.

Q: What about the log2 fold change (silmitasertib) of the same target?
A: Its log2 fold change is inactive: 0.195.

Q: What about the log2 fold change (entospletinib) of the same target?
A: Its log2 fold change is inactive: -0.469.

Q: Which results are given for ING2 (UniProt Q9H160)?
A: log2 fold change [1]: inactive: 0; log2 fold change (entospletinib): inactive: 0.206

Q: Which log2 fold change (entospletinib) does the source give for IFIH1 (UniProt Q9BYX4) here?
A: The log2 fold change was inactive: -0.191.

Q: Which log2 fold change [1] does the source give for ING4 (UniProt Q9UNL4) here?
A: Its log2 fold change is inactive: -0.011.

Q: For HUWE1 isoform 2 (UniProt Q7Z6Z7), which log2 fold change (entospletinib) is on record?
A: Its log2 fold change is inactive: -0.077.

Q: With ICAM4 (UniProt Q14773) as the target, how does the log2 fold change (entospletinib) read?
A: Its log2 fold change is inactive: 0.009.

Q: With ING5 (UniProt Q8WYH8) as the target, how does the log2 fold change (vorinostat) read?
A: The log2 fold change was inactive: 0.088.

Q: And the log2 fold change (silmitasertib)?
A: The log2 fold change was inactive: -0.034.

Q: What about the log2 fold change (entospletinib) of the same target?
A: Its log2 fold change is inactive: -0.09.

Q: Which results are given for ICE1 (UniProt Q9Y2F5)?
A: log2 fold change [1]: inactive: 0.015; log2 fold change (entospletinib): inactive: -0.184

Q: Which log2 fold change (entospletinib) does the source give for HUWE1, A0A087X1S3 here?
A: The log2 fold change was inactive: 0.001.
